Test results as given in paper PMC8298602, “14-3-3-protein regulates Nedd4-2 by modulating interactions between HECT and WW domains” (Communications Biology, 2021).
These are yes or no findings as the source states them, for the method shown.

By UniProt entry, the sequences of proteins in these tests, tags left out. Residues count along the entry.
UniProt Q96PU5, residues 335-455: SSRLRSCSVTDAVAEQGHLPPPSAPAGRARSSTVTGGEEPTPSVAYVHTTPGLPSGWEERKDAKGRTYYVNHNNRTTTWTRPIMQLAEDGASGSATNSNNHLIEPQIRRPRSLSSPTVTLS

Molecular target: phosphorylated Nedd4-2^335–455 (human) (UniProt Q96PU5)
Experiment: AUC; sedimentation velocity, 20 °C, 20 mM Tris-HCl pH 7.5, 150 mM NaCl, 1 mM TCEP; 1 μM 14-3-3η with Nedd4-2^335–455 variants (0.05 – 5 μM); apparent KD, sw isotherm fitted with A + B ⇌ AB, 14-3-3η dimer + one Nedd4-2 molecule; both purified

binding: no binding
Substance: phosphorylated Nedd4-2^335–455 (from UniProt Q96PU5 335-455) (domain or fragment)
